Construct, isoform or probe ends are uncertain for at least one entry. The comparison behind a weaker result is the experiment's own reference, which may not be listed here. For some of these results: At least one verdict rests on a figure or table, not on a statement of the authors.
system: p53, C-terminus truncated, constitutively active; test: EMSA; conditions: stated to show p53 binding, Pax2 sites weak; EMSA: 0.5 ug p53, 25,000 cpm 32P probe, 20 min at room temperature; competitor 200-fold molar excess added 15 min before probe; salt and pH not given; recombinant protein; label: 32P 5' end (direct EMSA), unlabeled as …

Binding result, binds more weakly:
GCATCCTCTGTCACTGCCGCGGACAAGCCGCTGCGCACCGTCTCCC (double strand) [Pax2 site 8]
GGGAGCGAGTGCGGGCCAGGCTGCAGAGACTGGGCCAGCGGCT (double strand) [Pax2 site 7]

system: p53, C-terminus truncated, constitutively active; test: competition with a labelled probe; conditions: 200-fold excess vs labeled consensus, sites 1-14 weak (text: weakly or not at all); EMSA: 0.5 ug p53, 25,000 cpm 32P probe, 20 min at room temperature; competitor 200-fold molar excess added 15 min before probe; salt and pH not given; recombinant protein; label: 32P 5' end (direct EMSA), unlabeled as …

Binding result, binds more weakly:
AACCAAGCCTGACAGGTCGAGCCCTGGCTGTGTTTG (double strand) [Pax2 site 14]
AAGGAAGATAAGGCTACTGCGGTTACTACCACCTTAGAGCTTCTGGCTCC (double strand) [Pax2 site 2]
AGGCGTCTGGACTGCCCAGACTCCGGGGAGGGGGTGCGCGCCACCGCGTGTGGG (double strand) [Pax2 site 9]
CAGACATACCAAGACTTAACTTAAGCACACCCAACAAGAGTTCCTTTATG (double strand) [Pax2 site 1]
CCTGGGAAGGCATGCCTGAGTTTTCTGGAGCTACATAGAAATTAGACTATCACTAGCCCTCAT (double strand) [Pax2 site 5]
GAACTCAGCGCAAGGGTAGCCGAGTTAGGACAGGGGCTGCGGACTCGCGGGCGTCTGGGA (double strand) [Pax2 site 10]
GAATCTATTGCCTTTGTCTGACAAGTCATCCATCTCCCGG (double strand) [Pax2 site 12]
GCATCCTCTGTCACTGCCGCGGACAAGCCGCTGCGCACCGTCTCCC (double strand) [Pax2 site 8]
GGGAGCGAGTGCGGGCCAGGCTGCAGAGACTGGGCCAGCGGCT (double strand) [Pax2 site 7]
GGTTAGCAGACAGGATCTCTGCCTGCACTTTACTTATGCATGATCCGCC (double strand) [Pax2 site 13]
TGTGGCAGATACTTGCGTAAGTGCAACTTCAAAAGTG (double strand) [Pax2 site 6]
TTCTGGCTCCCCAGTATGGGAGCTGACCCTTTTAGGCTGA (double strand) [Pax2 site 3]
TTGATTATCTAGACCCAGAAACCAGCTGGAAAACTAAC (double strand) [Pax2 site 4]
TTGGCCGGTGGATGGCAGGGCTGGGCGAGTTAGGACTGAGAGCCTGGCTTCGGAGTGCCG (double strand) [Pax2 site 11]
